Experimental data reported in publication PMC7140707.
Results are given in words; binding and its absence hold for the method and conditions named. Binding seen in cells or lysates may run through a third protein. Here binding means that the protein was enriched with, or labelled near, the bait; the list need not be complete. Tags and fused reporters may be left off the sequences shown.

Sequences of proteins named here, by UniProt entry; tags and fusion partners are left off.
UniProt P38328: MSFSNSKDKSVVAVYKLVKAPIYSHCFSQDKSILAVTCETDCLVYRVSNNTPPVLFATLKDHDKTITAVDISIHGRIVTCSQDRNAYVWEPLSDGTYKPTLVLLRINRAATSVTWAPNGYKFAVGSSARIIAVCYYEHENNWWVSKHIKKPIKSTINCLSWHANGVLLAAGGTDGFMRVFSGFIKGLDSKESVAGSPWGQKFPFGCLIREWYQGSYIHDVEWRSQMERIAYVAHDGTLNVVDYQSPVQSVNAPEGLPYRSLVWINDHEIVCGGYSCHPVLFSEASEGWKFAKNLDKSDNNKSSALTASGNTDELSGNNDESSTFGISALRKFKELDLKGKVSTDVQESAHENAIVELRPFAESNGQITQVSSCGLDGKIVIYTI
UniProt P39960: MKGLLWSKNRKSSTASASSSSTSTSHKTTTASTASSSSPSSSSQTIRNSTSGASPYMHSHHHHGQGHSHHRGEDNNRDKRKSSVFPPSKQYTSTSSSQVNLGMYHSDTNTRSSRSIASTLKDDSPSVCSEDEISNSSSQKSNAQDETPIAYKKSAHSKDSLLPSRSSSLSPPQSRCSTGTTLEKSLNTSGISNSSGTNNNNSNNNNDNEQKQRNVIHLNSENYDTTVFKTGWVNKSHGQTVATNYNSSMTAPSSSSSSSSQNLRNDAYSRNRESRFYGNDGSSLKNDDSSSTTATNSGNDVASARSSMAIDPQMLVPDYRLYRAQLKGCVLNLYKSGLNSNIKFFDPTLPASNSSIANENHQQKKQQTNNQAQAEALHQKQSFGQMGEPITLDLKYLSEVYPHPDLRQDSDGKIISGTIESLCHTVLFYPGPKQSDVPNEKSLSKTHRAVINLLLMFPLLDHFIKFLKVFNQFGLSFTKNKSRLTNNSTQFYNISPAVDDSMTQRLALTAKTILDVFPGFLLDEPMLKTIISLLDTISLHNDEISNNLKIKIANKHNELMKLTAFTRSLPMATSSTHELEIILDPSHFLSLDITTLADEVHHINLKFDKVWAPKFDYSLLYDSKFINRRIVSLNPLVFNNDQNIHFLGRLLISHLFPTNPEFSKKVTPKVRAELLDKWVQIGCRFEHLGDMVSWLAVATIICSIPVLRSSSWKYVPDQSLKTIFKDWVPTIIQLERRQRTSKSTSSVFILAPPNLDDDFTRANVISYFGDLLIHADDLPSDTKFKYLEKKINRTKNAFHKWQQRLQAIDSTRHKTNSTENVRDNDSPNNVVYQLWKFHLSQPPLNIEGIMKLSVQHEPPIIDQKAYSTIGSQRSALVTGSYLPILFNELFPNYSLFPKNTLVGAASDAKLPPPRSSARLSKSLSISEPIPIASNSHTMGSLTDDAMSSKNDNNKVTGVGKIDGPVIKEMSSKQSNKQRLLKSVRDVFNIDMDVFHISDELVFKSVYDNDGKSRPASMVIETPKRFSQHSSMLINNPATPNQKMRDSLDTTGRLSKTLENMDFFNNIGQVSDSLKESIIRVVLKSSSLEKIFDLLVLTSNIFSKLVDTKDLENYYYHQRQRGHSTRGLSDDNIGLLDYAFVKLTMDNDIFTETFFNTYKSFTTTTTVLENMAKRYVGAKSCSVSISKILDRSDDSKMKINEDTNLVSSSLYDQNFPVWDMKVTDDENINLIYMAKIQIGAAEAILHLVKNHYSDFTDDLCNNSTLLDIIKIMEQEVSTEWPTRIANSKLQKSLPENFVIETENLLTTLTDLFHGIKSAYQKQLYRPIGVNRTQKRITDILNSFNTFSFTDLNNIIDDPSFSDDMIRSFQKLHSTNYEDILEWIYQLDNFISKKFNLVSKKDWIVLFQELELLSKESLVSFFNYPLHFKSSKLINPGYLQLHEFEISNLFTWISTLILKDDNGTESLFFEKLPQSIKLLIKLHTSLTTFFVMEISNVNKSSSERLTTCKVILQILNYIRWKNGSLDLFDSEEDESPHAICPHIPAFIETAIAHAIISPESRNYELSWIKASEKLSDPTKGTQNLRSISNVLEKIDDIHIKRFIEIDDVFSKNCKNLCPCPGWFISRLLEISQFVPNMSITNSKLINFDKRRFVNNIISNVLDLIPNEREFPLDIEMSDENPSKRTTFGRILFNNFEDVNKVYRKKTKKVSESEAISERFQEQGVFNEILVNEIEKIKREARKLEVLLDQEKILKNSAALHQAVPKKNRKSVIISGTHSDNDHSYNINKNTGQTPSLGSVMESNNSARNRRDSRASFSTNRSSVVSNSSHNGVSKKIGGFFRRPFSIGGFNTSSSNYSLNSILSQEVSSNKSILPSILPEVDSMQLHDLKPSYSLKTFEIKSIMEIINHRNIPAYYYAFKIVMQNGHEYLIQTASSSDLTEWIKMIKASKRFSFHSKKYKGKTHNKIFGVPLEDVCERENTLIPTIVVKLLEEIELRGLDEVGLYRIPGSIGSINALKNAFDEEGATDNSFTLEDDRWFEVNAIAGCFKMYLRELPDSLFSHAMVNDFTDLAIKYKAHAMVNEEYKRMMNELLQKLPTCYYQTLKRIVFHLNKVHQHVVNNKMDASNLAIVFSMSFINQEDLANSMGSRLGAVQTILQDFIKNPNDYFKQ
UniProt Q08732: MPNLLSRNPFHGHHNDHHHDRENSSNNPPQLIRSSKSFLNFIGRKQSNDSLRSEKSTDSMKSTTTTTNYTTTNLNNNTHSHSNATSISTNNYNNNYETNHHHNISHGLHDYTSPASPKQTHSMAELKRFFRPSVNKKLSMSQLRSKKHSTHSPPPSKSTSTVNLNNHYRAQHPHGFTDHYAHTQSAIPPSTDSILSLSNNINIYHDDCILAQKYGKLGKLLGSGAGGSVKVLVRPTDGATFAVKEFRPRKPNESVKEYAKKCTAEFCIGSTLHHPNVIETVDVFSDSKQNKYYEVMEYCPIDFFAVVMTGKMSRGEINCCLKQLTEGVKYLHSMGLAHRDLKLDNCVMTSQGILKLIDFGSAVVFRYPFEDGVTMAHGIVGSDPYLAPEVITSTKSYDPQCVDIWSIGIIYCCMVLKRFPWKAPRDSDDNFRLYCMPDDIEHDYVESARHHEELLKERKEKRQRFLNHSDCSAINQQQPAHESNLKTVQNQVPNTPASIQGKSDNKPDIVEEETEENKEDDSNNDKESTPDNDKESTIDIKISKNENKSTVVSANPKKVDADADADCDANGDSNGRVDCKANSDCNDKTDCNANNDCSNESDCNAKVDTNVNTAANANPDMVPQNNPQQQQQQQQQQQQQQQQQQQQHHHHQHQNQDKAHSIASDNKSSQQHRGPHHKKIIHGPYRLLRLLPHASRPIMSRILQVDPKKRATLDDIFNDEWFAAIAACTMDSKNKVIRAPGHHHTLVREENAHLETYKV
UniProt Q12329: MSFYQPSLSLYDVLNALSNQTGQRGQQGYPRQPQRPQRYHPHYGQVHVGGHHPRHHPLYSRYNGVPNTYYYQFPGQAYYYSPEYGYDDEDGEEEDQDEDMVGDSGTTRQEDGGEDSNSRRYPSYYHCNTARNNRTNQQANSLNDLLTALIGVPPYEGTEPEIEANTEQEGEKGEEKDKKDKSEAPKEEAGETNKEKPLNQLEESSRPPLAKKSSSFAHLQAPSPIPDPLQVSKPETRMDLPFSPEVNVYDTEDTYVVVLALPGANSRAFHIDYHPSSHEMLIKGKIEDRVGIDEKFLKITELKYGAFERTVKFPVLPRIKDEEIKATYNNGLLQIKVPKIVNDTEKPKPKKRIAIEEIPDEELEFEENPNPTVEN
UniProt P00817: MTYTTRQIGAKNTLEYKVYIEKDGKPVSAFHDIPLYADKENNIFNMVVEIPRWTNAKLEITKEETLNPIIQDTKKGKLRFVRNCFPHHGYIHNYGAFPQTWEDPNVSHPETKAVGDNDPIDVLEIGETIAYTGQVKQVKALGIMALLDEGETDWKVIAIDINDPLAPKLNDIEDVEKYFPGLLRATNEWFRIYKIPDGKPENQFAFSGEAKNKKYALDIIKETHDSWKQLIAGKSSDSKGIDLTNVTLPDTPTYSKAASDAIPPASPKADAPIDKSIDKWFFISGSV
UniProt P39943: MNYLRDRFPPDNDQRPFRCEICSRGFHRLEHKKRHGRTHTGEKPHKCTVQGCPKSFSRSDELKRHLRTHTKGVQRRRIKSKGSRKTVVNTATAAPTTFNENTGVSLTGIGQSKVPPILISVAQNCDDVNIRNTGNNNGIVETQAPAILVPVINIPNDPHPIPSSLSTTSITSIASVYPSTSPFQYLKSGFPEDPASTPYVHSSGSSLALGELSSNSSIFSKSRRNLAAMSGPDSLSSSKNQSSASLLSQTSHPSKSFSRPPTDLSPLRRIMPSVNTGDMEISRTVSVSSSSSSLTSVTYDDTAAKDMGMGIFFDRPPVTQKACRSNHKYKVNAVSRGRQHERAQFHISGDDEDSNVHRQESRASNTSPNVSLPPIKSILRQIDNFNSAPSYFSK
UniProt P53742: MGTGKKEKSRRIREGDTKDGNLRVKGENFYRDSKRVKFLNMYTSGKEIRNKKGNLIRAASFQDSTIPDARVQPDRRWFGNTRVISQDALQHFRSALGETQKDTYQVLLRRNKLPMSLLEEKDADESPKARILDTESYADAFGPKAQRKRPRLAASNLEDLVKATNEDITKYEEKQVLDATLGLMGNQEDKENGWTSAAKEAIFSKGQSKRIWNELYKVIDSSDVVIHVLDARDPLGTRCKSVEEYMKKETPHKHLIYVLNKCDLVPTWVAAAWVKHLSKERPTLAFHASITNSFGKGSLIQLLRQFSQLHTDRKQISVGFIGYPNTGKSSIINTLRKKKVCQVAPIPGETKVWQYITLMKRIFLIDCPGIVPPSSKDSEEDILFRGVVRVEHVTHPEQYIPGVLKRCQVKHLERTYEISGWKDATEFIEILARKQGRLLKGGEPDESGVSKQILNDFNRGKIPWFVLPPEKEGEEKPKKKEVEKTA
UniProt Q03558: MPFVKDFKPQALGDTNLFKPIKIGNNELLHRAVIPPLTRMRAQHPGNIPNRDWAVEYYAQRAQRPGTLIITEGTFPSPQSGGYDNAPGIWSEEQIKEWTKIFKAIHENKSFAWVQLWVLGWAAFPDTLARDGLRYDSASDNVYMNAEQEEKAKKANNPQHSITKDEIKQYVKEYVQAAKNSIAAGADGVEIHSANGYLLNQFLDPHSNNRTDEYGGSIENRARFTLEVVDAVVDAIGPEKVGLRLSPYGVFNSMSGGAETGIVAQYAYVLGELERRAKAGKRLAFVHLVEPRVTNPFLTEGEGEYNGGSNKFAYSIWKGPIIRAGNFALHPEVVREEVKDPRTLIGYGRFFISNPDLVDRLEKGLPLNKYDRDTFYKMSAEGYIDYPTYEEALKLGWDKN
UniProt P12709: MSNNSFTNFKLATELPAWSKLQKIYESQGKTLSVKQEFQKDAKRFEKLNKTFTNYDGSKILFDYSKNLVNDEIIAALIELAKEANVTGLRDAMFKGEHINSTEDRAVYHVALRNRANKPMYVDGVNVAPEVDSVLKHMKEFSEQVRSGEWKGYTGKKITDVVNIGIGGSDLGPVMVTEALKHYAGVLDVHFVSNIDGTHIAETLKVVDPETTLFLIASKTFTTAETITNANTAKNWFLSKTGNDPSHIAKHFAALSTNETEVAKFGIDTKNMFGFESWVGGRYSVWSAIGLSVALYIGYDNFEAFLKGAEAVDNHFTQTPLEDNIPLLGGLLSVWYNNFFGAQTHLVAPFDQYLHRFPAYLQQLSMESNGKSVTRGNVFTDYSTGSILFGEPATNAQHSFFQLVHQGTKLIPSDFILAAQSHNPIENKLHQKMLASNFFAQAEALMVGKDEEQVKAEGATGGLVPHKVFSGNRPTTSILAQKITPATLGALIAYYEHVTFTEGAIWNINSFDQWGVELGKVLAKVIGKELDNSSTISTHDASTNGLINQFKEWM
UniProt P32867: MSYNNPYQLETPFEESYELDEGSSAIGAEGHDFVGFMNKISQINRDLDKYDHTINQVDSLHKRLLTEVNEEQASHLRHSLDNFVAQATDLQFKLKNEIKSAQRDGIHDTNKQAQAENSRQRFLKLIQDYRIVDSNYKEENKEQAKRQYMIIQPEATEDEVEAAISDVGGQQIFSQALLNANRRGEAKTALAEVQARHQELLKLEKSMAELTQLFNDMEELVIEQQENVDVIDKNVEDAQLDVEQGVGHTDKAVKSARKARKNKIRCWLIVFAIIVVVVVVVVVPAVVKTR
UniProt P02557: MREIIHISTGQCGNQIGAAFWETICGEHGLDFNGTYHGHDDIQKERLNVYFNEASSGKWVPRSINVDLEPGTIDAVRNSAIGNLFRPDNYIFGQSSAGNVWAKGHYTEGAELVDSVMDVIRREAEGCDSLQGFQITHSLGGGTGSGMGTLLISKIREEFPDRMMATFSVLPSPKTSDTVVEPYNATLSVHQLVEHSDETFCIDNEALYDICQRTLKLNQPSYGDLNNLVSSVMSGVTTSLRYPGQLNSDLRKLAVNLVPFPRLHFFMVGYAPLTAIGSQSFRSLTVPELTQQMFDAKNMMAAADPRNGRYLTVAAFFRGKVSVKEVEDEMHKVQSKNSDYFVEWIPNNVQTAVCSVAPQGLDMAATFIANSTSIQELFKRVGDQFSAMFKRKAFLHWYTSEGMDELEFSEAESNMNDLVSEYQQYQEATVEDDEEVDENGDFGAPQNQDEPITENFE

Biological target: T1, His6-Gis1 (yeast (S. cerevisiae)) (UniProt Q03833)
T1 sequence: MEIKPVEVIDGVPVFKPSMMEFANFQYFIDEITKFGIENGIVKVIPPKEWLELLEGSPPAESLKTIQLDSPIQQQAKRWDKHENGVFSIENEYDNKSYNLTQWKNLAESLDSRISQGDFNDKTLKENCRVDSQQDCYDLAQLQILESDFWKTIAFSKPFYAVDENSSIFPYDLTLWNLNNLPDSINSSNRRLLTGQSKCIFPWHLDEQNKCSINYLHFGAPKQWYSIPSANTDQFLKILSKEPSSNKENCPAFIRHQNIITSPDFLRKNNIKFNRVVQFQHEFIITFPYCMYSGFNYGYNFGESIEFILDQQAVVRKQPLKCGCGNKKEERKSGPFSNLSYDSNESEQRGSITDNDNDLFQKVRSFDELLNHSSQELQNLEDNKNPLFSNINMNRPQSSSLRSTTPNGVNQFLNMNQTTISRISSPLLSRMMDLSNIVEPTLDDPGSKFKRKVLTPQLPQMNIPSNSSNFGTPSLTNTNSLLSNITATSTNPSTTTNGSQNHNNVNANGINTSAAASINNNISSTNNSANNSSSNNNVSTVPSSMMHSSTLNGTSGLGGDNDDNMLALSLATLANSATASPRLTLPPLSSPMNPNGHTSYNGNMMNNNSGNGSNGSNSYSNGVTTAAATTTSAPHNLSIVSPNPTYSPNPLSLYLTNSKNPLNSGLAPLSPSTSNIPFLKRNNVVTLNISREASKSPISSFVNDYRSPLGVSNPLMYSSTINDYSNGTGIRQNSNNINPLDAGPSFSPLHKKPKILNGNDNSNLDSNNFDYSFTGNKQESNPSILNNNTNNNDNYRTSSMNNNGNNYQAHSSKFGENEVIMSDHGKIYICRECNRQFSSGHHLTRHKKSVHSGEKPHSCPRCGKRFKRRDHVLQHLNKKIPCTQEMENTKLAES
Experiment: affinity purification with mass spectrometry; His6-Gis1 pre-bound to a Ni Sepharose 6 Fast Flow column; crude yeast extract (Δgis1 cells grown in air or under hypoxia, Δgis1Δhem1 cells at intermediate or high ALA) loaded, 4 °C, 2 h; eluted complexes separated by SDS-PAGE, bands excised, MS; only the target purified

In the case of ACT1 (from UniProt P60010 1-375), the binding is reported as “binds”.

In the case of ARC40 (from UniProt P38328 1-384), the binding is reported as “binds”.

In the case of ATP1 (from UniProt P07251 36-545), the binding is reported as “binds”.

In the case of BEM2 (from UniProt P39960 1-2167), the binding is reported as “binds”.

In the case of CDC33 (from UniProt P07260 1-213), the binding is reported as “binds”.

CPR1 (from UniProt P14832 1-162) was tested, and the binding was “binds”.

In the case of CYR1 (from UniProt P08678 1-2026), the binding is reported as “binds”.

For ERG11 (from UniProt P10614 1-530), the binding was “binds”.

With HRK1 (from UniProt Q08732 1-759) the binding was “binds”.

HSP42 (from UniProt Q12329 1-375) was tested, and the binding was “binds”.

HTB2 (from UniProt P02294 1-131) was tested, and the binding was “binds”.

For ILV1, the binding was “binds”.

With IPP1 (from UniProt P00817 1-287) the binding was “binds”.

For LYS12 (from UniProt P40495 23-371), the binding was “binds”.

With LYS21 the binding was “binds”.

With MIG1 (from UniProt P27705 1-504) the binding was “binds”.

For MIG3 (from UniProt P39943 1-394), the binding was “binds”.

In the case of NOG2 (from UniProt P53742 1-486), the binding is reported as “binds”.

For NUP60 (from UniProt P39705 1-539), the binding was “binds”.

With OYE2 (from UniProt Q03558 1-400) the binding was “binds”.

In the case of PBP1 (from UniProt P53297 1-722), the binding is reported as “binds”.

For PGI1 (from UniProt P12709 1-554), the binding was “binds”.

In the case of RVB2 (from UniProt Q12464 1-471), the binding is reported as “binds”.

In the case of RVS167 (from UniProt P39743 1-482), the binding is reported as “binds”.

In the case of SRB4 (from UniProt P32569 1-687), the binding is reported as “binds”.

SRV2 (from UniProt P17555 1-526) was tested, and the binding was “binds”.

For SSO1 (from UniProt P32867 1-290), the binding was “binds”.

TDH1 (from UniProt P00360 1-332) was tested, and the binding was “binds”.

TUB1 (from UniProt P09733 1-447) was tested, and the binding was “binds”.

In the case of TUB2 (from UniProt P02557 1-457), the binding is reported as “binds”.

With YBR238C the binding was “binds”.

For YCK2 (from UniProt P23292 1-546), the binding was “binds”.

In the case of YDR365-WB, the binding is reported as “binds”.

With ZDS1 (from UniProt P50111 1-915) the binding was “binds”.
